In this assay the target is FLAG-MKK7 (UniProt O14733). In words: co-immunoprecipitation, western blot.

By UniProt entry, the sequences of proteins in these tests, tags left out.
UniProt O14733: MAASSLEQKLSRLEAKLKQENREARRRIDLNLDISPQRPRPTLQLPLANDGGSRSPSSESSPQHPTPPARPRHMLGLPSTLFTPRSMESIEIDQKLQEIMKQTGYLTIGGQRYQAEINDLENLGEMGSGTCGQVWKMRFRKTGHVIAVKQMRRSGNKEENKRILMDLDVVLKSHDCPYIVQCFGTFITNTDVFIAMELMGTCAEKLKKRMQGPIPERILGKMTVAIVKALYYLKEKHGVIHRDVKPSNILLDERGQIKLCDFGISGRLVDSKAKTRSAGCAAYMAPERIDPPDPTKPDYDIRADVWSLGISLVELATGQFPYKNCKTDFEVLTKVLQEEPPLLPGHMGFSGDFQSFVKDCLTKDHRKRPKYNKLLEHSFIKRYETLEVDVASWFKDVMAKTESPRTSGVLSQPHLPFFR

No constants are given. Whether binding was seen depends on the method and setting. In cells and extracts the contact can be indirect. Some results given as binding are weak or reduced against the parent protein; the word gives no strength. Where a sequence is shown, tags or fusion partners need not be part of it.

The results in this text go back to patent US20120277164A1 (IMPERIAL INNOVATIONS, published 2012).

B1: Full length human Gadd45β (other, UniProt O75293 1-160, looked up)
chain: MTLEELVACDNAAQKMQTVTAAVEELLVAAQRQDRLTVGVYESAKLMNVDPDSVVLCLLAIDEEEEDDIALQIHFTLIQSFCCDNDINIVRVSGMQRLAQLLGEPAETQGTTEARDLHCLLVTNPHTDAWKSHGLVEVASYCEESRGNNQWVPYISLQER
notes: also called Gadd45β (SPR)
Consider B1, for which the binding result is given as “binds”.
